A short description of assay [1]: wild-type E. coli growth inhibition versus h38 humanized strain – h38 mutant RFP, wild-type GFP, cherry-pick, dose response (AID 977622). The conditions noted are these: E. coli mixed culture, 24 h, total growth OD600 at 50 uM.
For assay [2], the system named is E. coli h38 humanized mutant ribosome RFP fluorescence, mixed culture, 24 h. The assay is described as above. Particulars: h38 mutant RFP at 50 uM.

These results are taken from PubChem BioAssay AID977622 (Broad Institute, 2014).

Some of the results follow. These are further read-outs of the screen, such as a control signal, another cell line or another target. No call is given for them.

As for `CN(C(=O)c1cccc(NC(=O)Cc2cccc(NC(=O)C3CCN(C(=O)CCc4ccccc4)CC3)c2)c1)C1CC1`, the figures for the activity change in assay [1] and in assay [2] were -1.07% and -21.7%, respectively.
For `O=C(Cn1cc(COc2c(F)c(F)cc(F)c2F)nn1)c1ccc(O)cc1`, in that order: -37% and 3.12%.
In the case of `Cc1ccc(CC2C(=O)N(c3cc(Cl)ccn3)C(=O)C2C)cc1` (configuration not stated), the activity change in assay [1] was -39.8%.
Consider `N#Cc1nc(-c2ccco2)oc1NCc1ccccc1Cl`, for which the activity change in assay [1] is -35.7%; in assay [2] it was 3.29%.
For `COC(=O)[C@@H](Cc1c[nH]c2ccccc12)NCc1cccc(B(O)O)c1`, in that order: -9.99% and 11.5%.
For `COc1ccc(NC(=O)CCS(=O)(=O)c2ccccc2Cl)cc1S(=O)(=O)Nc1ccc(Cl)cc1`, in that order: -21.3% and -6.92%.
For `c1cc2cc(-c3c(-c4ccc5c(c4)OCO5)noc3-c3ccsc3)ccc2[nH]1`, in that order: 1.06% and -19.5%.
As for `CC(=O)c1cccc(NC(=O)COC(=O)C2CCCN2C(=O)c2cccs2)c1` (configuration not stated), the activity change in assay [1] was -53.1%.
In the case of `CS(=O)(=O)c1ccc(C(=O)Nc2nc(-c3ccco3)c(-c3ccco3)s2)cc1`, the activity change in assay [1] was -15.6%; in assay [2], -26.6%.
Turning to `O=C(CSc1nc(C2CCCCC2)nc2ccccc12)N1CCCC1`, the activity change in assay [1] is -59.9%; in assay [2] it was 22.8%.
Consider `O=C(O)c1ccc(-c2nc(-c3ccccc3)cs2)cc1`, for which the activity change in assay [1] is -31.9%; in assay [2], -23.4%.
As for `O=C(O)c1ccc(-c2noc(-c3cccc(Cl)c3)n2)cc1`, the activity change in assay [1] was -61.7%.
`COc1cc2[nH]c(=S)nc(NCCc3ccc(C)cc3)c2cc1OC`: the activity change in assay [1] is -14.4%; in assay [2], -2.19%.
On to `COc1ccc(NC(=O)c2sccc2-n2cccc2)cc1`, for which, in assay [1], the activity change was -29.1%.
Consider `O=C(Cn1cnc2ccccc21)c1ccc(Br)cc1`, for which the activity change in assay [1] is -10.5%; in assay [2], 44.5%.
For `CC(C)CN1C(=O)c2ccc(C(=O)Nc3ccncc3)cc2C1=O`, in that order: -36.6% and -46.6%.
For `Cc1ccc(C(=O)c2coc3cc([N+](=O)[O-])c(O)c([N+](=O)[O-])c23)cc1` the same measures were -57.9% and 5.41%.
`CCOC(=O)C(C)Sc1nc(N2CCOCC2)c2c(c1C#N)CC(C)(C)OC2` (configuration not stated): the activity change in assay [1] was -22.2%; in assay [2], -29.9%.
Take `CC1(C(=O)NS(=O)(=O)c2cccc(Cl)c2)CCN1C(=O)C1(c2ccc(Cl)cc2)CCC1` (configuration not stated): the activity change is -21.4% in assay [1] and -10.6% in assay [2].
For `COc1ccc(CN2C(=O)CC(Cc3cc(C)cc(C)c3)C2=O)cc1OC` (configuration not stated) the same measures were -4.74% and -11.5%.
For `COC(=O)c1ccc(CN2CCCC(CO)(Cc3ccccc3F)C2)cc1` (configuration not stated), in that order: -43.3% and 14%.
For `CCCc1c(C(=O)Nc2ccc(OC)cc2)cnn1-c1ccccc1`, the activity change in assay [1] was -37.3%; in assay [2], -36.9%.
Consider `CC(C)Cc1csc(NC(=O)c2ccc(Br)cc2)c1C(=O)O`, for which the activity change in assay [1] is -65.3%.
For the compound `O=C(O)c1ccc(S(=O)(=O)N(Cc2ccc(F)cc2)C2CCCCC2)cc1`, the figures for the activity change in assay [1] and in assay [2] were -71.8% and -4.92%, respectively.
For `O=C(Nc1ccc(Cl)cc1)N1C[C@H]2[C@@H](c3ccccc31)[C@@H](CO)N2C(=O)c1ccccn1` the same measures were -45.8% and -5.83%.
For `Cc1ccc(C)c(-c2[nH]ncc2CN2CCCC(CO)(Cc3ccccc3C)C2)c1` (configuration not stated), in that order: -31% and 17.7%.
For `O=C1c2ccccc2C(=O)N1CCc1c[nH]c2ccccc12` the same measures were -13.7% and 9.4%.
Turning to `C[C@@H]1CCCCO[C@@H](CN(C)C(=O)CCCN(C)C)[C@@H](C)CN([C@H](C)CO)C(=O)c2cc(NC(=O)Nc3cccc4ccccc34)ccc2O1`, the activity change was -15.4% in assay [1] and 25% in assay [2].
For `COc1ccccc1-c1ccc(SCc2ccc(F)cc2)nn1`, in that order: -8.59% and -2.88%.
For `O=C(COC(=O)CCC(=O)c1ccc(F)cc1)Nc1cccc(S(=O)(=O)N2CCCC2)c1` the same measures were -25.1% and -15%.
On to `Cc1cc2nc(SCC(=O)O)nc(C)c2cc1C`, for which, in assay [1], the activity change is -17.4%.
Same read-out and setting: with `COc1cc(CCN(C(=O)c2cc3ccccc3[nH]2)C(c2ccccn2)c2nc3ccccc3[nH]2)cc(OC)c1` (configuration not stated) the figure was -11.3%.
As to `CCc1cc2c(nc1CC)CCCN2Cc1ccc(Br)cc1`, the activity change was -39.1% in assay [1] and -22.9% in assay [2].
As for `Cc1c(C(=O)OCC(=O)N(C)c2ccccc2)oc2ccccc12`, the activity change was -65% in assay [1] and -10.1% in assay [2].
For `CC1(C(=O)NS(=O)(=O)c2ccc3c(c2)CCO3)CCN1C(=O)c1ccccc1CCc1ccccc1` (configuration not stated), in that order: -8.34% and 1.01%.
Regarding `CCC(=O)Nc1nc2ccc(NC(=O)c3cc(OC)c(OC)c(OC)c3)cc2s1`, the activity change in assay [1] was -42%; in assay [2], -8.47%.
For `O=C(COC(=O)c1ccc(O)cc1)Nc1ccccc1` the same measures were 5.41% and 11.2%.
Regarding `COc1ccc(NS(=O)(=O)c2ccc(Oc3c(C#N)cccc3C#N)cc2)cc1`, the activity change in assay [1] is -57.1%; in assay [2] it was -19.7%.
For `O=C1NC(CCc2ccccc2)C(=O)N1Cc1cccc2ccccc12` (configuration not stated) the same measures were -50.3% and -8.11%.
Consider `CCN(c1ccc(OC)cc1)S(=O)(=O)c1cc(-c2cc(C)no2)ccc1OC`, for which the activity change in assay [1] is -68.5%; in assay [2], 1.1%.
On to `Cc1cccc(S(=O)(=O)N2CCCCN3[C@H](CO)[C@H](c4ccc(C#CC(C)C)cc4)[C@H]3C2)c1`, for which the activity change was -52.3% in assay [1] and -49.3% in assay [2].
For `COc1cccc(N2CCN(c3ccc(S(=O)(=O)N4CCN(C)CC4)cc3[N+](=O)[O-])CC2)c1`, in that order: -40% and -31.9%.
